Entries after “also recorded” stand apart in the source; their conditions may differ. At least one peptide structure holds a part that was inferred or is arguable (an end, a ring closure or a residue). Marks after values point to notes of the source that are not given here. Ends that are not written are not given here.
How the values were obtained:
[1] = tested on: T lymphocyte; test: T lymphocyte transformation test (ConA-stimulated spleen cells of treated mice, MTT); assay type: in vivo, BALB/c mice; conditions: for X ± SD (stimulation index): healthy mice, peptide 50 μg/kg/day i.p. 15 days (IFN-γ, IL-2 3×10^5 IU/kg/day), saline 1.3 ± 0.1; for effect on T lymphocyte transformation (summary): statistically significant difference from saline in any of the dosage groups 0.5-500 μg/kg/day
Method: (§1) The above substances were all dissolved in 0.5 ml saline and injected intraperitoneal (i.p.) for 15 continuous days, once per day.
(§2) Ten mice per group. The day after the last test substance administration, the mice were sacrificed by cervical dislocation. The spleen was isolated aseptically and manually dispersed in cold D-Hank's solution using an injection needle. The dispersed cell suspension was further sieved through a 100 gauge 150 μm diameter stainless steel sieve. After centrifugation at 200 g for 10 minutes, the supernatant was discarded. The cell pellet was re-suspended in 10 volume of Tris-NH4Cl buffer and then kept standing still for 10 minutes at room temperature. The suspended cells were collected by centrifugation at 150 g for 10 minutes. The cells were washed 2-4 times with cold D-Hank's solution by re-suspending and collecting by centrifugation with condition as described above. The washed cells were then diluted to the desired cell densities by RPMI-1640 culture medium, containing 10% fetal bovine serum.
Spleen cells of density 1×10^6/ml were placed onto a 96 wells cell culture plate, 100 μL/well, three parallel wells each of the assay sample and control sample per mouse. To the assay wells, 100 μl/well ConA of 100 μg/ml in RPMI-1640 was added, and […] plain RPMI-1640 was used for the controls. The cells were incubated for 66 hrs at 37° C., 5% CO2. The cells were then pelleted by centrifugation at 150 g for 10 minutes.
50 μl/well MTT of 1 mg/ml in RPMI-1640 was added to the cell pellet and the cells re-suspended by shaking for 2 minutes. The incubation was continued for 4 hours. The supernatant was discarded after centrifugation at 150 g for 10 minutes. 120 μl 40 mM HCl-2-propanol was added to the cell pellet and shaken for 3 minutes. […]
Each mouse formed three assay wells and three control wells. The Stimulation Index (SI) of each mouse was obtained by first deriving the average OD of the three parallel wells, then dividing the value of the assay wells by the control wells.

[2] = tested on: spleen; test: Immunity organ weight test, spleen index; assay type: in vivo, BALB/c mice; conditions: for weight of spleen (spleen index), X ± SD (%): healthy mice, peptide 500 μg/kg/day i.p. 15 days, saline 0.53 ± 0.05; for effect on the weight of the spleen (summary): statistically significant difference from saline in any of the dosage groups 0.5-500 μg/kg/day
Method: (§3) One day after the last test substance administration (day 16), the liver, spleen, and thymus gland were separated and blotted dry with filter paper and weighed. The phagocytosis index α was calculated as below: α=(^3√{square root over ( )}K)(W÷WLS)
Spleen index (%)=(spleen weight/body weight)×100%

[3] = tested on: thymus gland; test: Immunity organ weight test, thymus gland index; assay type: in vivo, BALB/c mice; conditions: for weight of thymus gland (thymus gland index), X ± SD (%): healthy mice, saline 0.12 ± 0.02; for effect on the weight of the thymus gland (summary): statistically significant difference from saline in any of the dosage groups 0.5-500 μg/kg/day
Method: as §3
Thymus gland index (%)=(thymus weight/body weight)×100%

[4] = tested on: Masugi nephritis rat model; test: Masugi nephritis rat model; conditions: for urine protein level: 24 h urine; for spleen index / Serum creatinine level: after three weeks of treatment; for spleen index: placebo 4.8 ± 1.1, normal 2.4 ± 0.1; for Serum creatinine level: placebo 265 ± 212, normal 80 ± 1; for renal pathological microscopic examination: peptides 50 μg/kg/day i.p. 3 weeks, 6 heaviest kidneys per group
[5] = tested on: anti-SRBC antibody; test: Sheep Red Blood Cell (SRBC) hemolysis test, antibody formation; assay type: in vivo, BALB/c mice; conditions: for anti-SRBC antibody formation, X ± SD (Unit): healthy mice, SRBC day 12 (IFN-γ, IL-2 3×10^5 IU/kg/day), saline 32 ± 7; for effect on the synthesis of anti-SRBC antibody upon the antigenic challenge (summary): statistically significant difference from saline in any of the dosage groups 0.5-500 μg/kg/day
Method: Sheep red blood cells (SRBC) were prepared by collecting blood from cervical vein and put into a sterile flask with glass beads. The flask was shaken for 3 minutes and the blood then mixed with Alsever solution (glucose 2.05 g, NaCl 0.4 g, […] 0.8 g, adjust to 100 ml with distilled water) and stored at 4° C. Immediately before use, samples were centrifuged at 130 g, 5 minutes to collect the SRBC. The cells were washed two times by re-suspension and centrifugation in normal saline. Then the cell pellet was collected by centrifugation at 180 g for 10 minutes and re-suspended in saline to make the final working SRBC suspension, 2% (v/v).
Complement was prepared by adding 10 volumes of fresh Cavy serum into one volume centrifuge packed SRBC, and then gently shaking for 30 minutes at 4° C. The SRBC was removed by centrifugation at 200 g for 10 minutes. 10 volumes of normal saline were added to obtain the working complement solution.
The test substances were administered as described in section 1.1, plus intraperitoneal injection 0.2 ml SRBC per mouse on day 12. On the day after the last test substance administration (day 16), blood was collected from the eye canthus and left at room temperature for one hour for serum exudation. After centrifugation at 200 g for 10 minutes, the serum was diluted by 500 times with normal saline.
To 1 ml diluted mouse serum of each mouse, 0.5 ml SRBC suspension was added. Ice cold. Then 1 ml working complement solution was added and incubated at 37° C. water bath for 10 minutes. Reactions were terminated by ice cold. Samples were then centrifuged at 200 g for 10 minutes to obtain the supernatant.
To 1 ml of this supernatant, 3 ml Drabkin solution was added and left at room temperature for 10 minutes. OD540 nm was obtained.
Reference OD540 nm was obtained by mixing 0.25 ml SRBC suspension with Drabkin solution to 4 ml and placed at room temperature for 10 minutes before OD540 nm was taken.
Sample serum index=(OD540 nm of test sample÷reference OD540 nm)×500

[6] = tested on: NK cell; test: NK cell activity in mice with ascitic fluid type liver cancer H22; assay type: in vivo, BALB/c mice; conditions: dose 0.5 μg/kg, saline 24.0 ± 8.2
Method: as §2, with “Healthy BALB/c mice were randomised into peptide group, rmIFN-γ group, rhIL-2 group, and saline group, 15” for “Ten”, “group, and prepared into H22 carrying mice model as described in section Method 3. After implantation of” for “group. The day after”, “cancer cells, the” for “last”, “substances were administered for 15 days,” for “substance administration,”, “killed” for “sacrificed”, “100-gauge” for “100 gauge”
Mice spleen cells were prepared to 4×10^6/ml as described in section 4.1 above. […]
Samples were centrifuged at 150 g for 10 minutes to collect the cells. […] An ELISA reader was used to obtain OD570 nm of each well referenced at 630 nm. […]

[7] = tested on: mononuclear phagocyte; test: Carbon particle clearance test, phagocytosis function; assay type: in vivo, BALB/c mice; set-up: key to X ± SD (phagocytotic index): α = cube root of K × (body weight ÷ liver+spleen weight)
Method: On the next day after the last test substance administration (day 16), the mice were injected with […] body weight India ink (5 times dilution with normal saline) from the tail vein.
One minute and five minutes after Indian ink injection, 20 μl blood was obtained from the eye canthus with a heparinized tubing. The blood was mixed with 2 ml 0.1% w/v Na2CO3 and then OD680 nm obtained. The outline clear index K was calculated by the following formula: K=(lgA1−lgA2)÷(t2−t1)
as §3

[8] = tested on: NK cell; test: NK cell cytotoxicity activity test (spleen cells of treated mice against YAC-1 target cells, MTT); assay type: in vivo, BALB/c mice; conditions: for NK cell cytotoxic activity, X ± SD (%): healthy mice
Method: as §1, §2
Mice spleen cells were prepared to 4×10^6/ml as described in section 1.1 above. Target cells YAC-1 were brought to log phase and adjusted to 1×10^5/ml. Using a 96 wells cell culture plate, […] were added to the control well containing only the spleen cells; […] and 100 μl culture medium were added to the control well containing only target cells; 100 μl mouse spleen cells and 100 μl target cells were added to the NK activity assay well. Three parallel sets of the above were prepared per mouse.
Samples were centrifuged at 150 g for 10 minutes to collect the cells. The supernatant was discarded and 50 μl/well MTT of 1 mg/ml was added. The reaction-mixture was then shaken for 2 minutes, and incubated at 37° C., 5% CO2 for 4 hours. The supernatant was discarded after centrifugation at 150 g for 10 minutes. […] 40 mM HCl-2-propanol was added and shaken for 3 minutes. An ELISA reader was used to obtain OD570 nm of each well referenced at 630 nm.

[9] = peptide 5 μg/kg/day i.p. 15 days (IFN-γ, IL-2 3×10^5 IU/kg/day)
[10] = peptide 50 μg/kg/day i.p. 15 days (IFN-γ, IL-2 3×10^5 IU/kg/day)
[11] = Week 1, peptides 50 μg/kg/day, hydrocortisone 3.3 mg/kg/day i.p., placebo 22.9 ± 22, normal 1.7 ± 1.3
[12] = Week 2, peptides 50 μg/kg/day i.p., hydrocortisone dose halved after first week, placebo 17.2 ± 14.5, normal 2.3 ± 1.1
[13] = Week 3, peptides 50 μg/kg/day i.p., hydrocortisone dose halved after first week, placebo 20.2 ± 29.0, normal 0.4 ± 0.2
[14] = peptide 0.5 μg/kg/day i.p. 15 days
[15] = statistically significant difference from saline in any of the dosage groups 0.5-500 μg/kg/day

| Substance | X ± SD (stimulation index) [1] | effect on T lymphocyte transformation (summary) [1] | weight of spleen (spleen index), X ± SD (%) [2] [%] | effect on the weight of the spleen (summary) [2] | weight of thymus gland (thymus gland index), X ± SD (%) [3, 9] | weight of thymus gland (thymus gland index), X ± SD (%) [3, 10] | effect on the weight of the thymus gland (summary) [3] | urine protein level [4, 11] [mg] | urine protein level [4, 12] [mg] | urine protein level [4, 13] [mg] | spleen index ([4]; peptides 50 μg/kg/day i.p.) | Serum creatinine level ([4]; peptides 50 μg/kg/day i.p.) [µmol/L] | renal pathological microscopic examination [4] | anti-SRBC antibody formation, X ± SD (Unit) [5, 14] [Unit] | effect on the synthesis of anti-SRBC antibody upon the antigenic challenge (summary) [5] | further results |
| --- | --- | --- | --- | --- | --- | --- | --- | --- | --- | --- | --- | --- | --- | --- | --- | --- |
| AAHHPDDFNPSV [CMS014] | 1.0 ± 0.1 | inhibit | 0.40 ± 0.03 | decrease | 0.23 ± 0.06*^ % | 0.21 ± 0.02*^@^ % | increase | 5.5 ± 4.0 | 6.3 ± 6.8 | 2.8 ± 1.9 | 3.6 ± 1.3 ×10^−3 | 159 ± 1 | only one rat showed signs of fibrous tissue formation in the glomerular capsule and hyperplasia of the glomerular epithelium | 15 ± 6 | enhance; also recorded: inhibit | weight of thymus gland (thymus gland index), X ± SD (%) ([3]; peptide 0.5 μg/kg/day i.p. 15 days (IFN-γ, IL-2 3×10^5 IU/kg/day)): 0.20 ± 0.04 %; anti-SRBC antibody formation, X ± SD (Unit) ([5]; peptide 500 μg/kg/day i.p. 15 days): 130 ± 24*^@^ Unit; NK activity index (%) [6]: 40.7 ± 19.7*^$ % |
| FQPSF [CMS036, Phe Gln Pro Ser Phe] | 1.0 ± 0.1 | inhibit | 0.40 ± 0.03 | decrease | 0.25 ± 0.04*^@^ % | 0.22 ± 0.02*^@^ % | increase | 7.9 ± 5.8 | 5.0 ± 7.1 | 1.3 ± 0.9 | 3.4 ± 0.8 ×10^−3 | 80 ± 1 | all pathological parameters of all rats were normal | 20 ± 6 | enhance; also recorded: inhibit | X ± SD (phagocytotic index) ([7]; healthy mice, peptide 0.5 μg/kg/day i.p. 15 days (IFN-γ, IL-2 3×10^5 IU/kg/day), saline 5.1 ± 0.6): 6.2 ± 0.3; effect on the phagocytotic activity of mononuclear phagocyte (summary) [7, 15]: enhance; weight of thymus gland (thymus gland index), X ± SD (%) ([3]; peptide 500 μg/kg/day i.p. 15 days (IFN-γ, IL-2 3×10^5 IU/kg/day)): 0.18 ± 0.02 %; NK cell cytotoxic activity, X ± SD (%) ([8]; peptide 5 μg/kg/day i.p. 15 days (IFN-γ, IL-2 3×10^5 IU/kg/day), saline 60 ± 9): 75 ± 9 %; NK cell cytotoxic activity, X ± SD (%) ([8]; peptide 500 μg/kg/day i.p. 15 days (IFN-γ, IL-2 3×10^5 IU/kg/day), saline 63 ± 9): 88 ± 7 %; effect on the cytotoxic activity of NK cells (summary) [8, 15]: increase; anti-SRBC antibody formation, X ± SD (Unit) ([5]; peptide 5 μg/kg/day i.p. 15 days): 179 ± 34*^@^ Unit; anti-SRBC antibody formation, X ± SD (Unit) ([5]; peptide 50 μg/kg/day i.p. 15 days): 118 ± 11*^@^ Unit |

From US20060167229A1, “Biologically active peptide conjugates” (priority 2002, published 2006)
